# Measurements reported in the supplement of paper PMC11348887.
# Structures can show the parent of a compound that is named as a salt. The list shows a part of the results. Most values lie at the level of the controls, where differences are scatter. Where a SMILES comes first, the peptide text is derived from it. Bridges are numbered along the chain shown (N, C = ends). [ ]: non-standard residue; d: D form. The star is where a group is joined. Heptanoyl(6-Me) = CC(C)CCCCC(=O)*; Dab = NCC[C@H](N)C(=O)O
# Columns and labels:
# Conditions in all cases: 5 µM; treatment: days 7-14 after plating, readout day 21
# [1] = tested on: hPSC-derived cortical neurons (WA09); assay: nucleus area z-score vs screen plate; higher = larger nuclei (more mature)
# [2] = tested on: hPSC-derived cortical neurons (WA09); assay: total neurite length per nucleus (MAP2) z-score; higher = more neurite growth
# [3] = tested on: hPSC-derived cortical neurons (WA09); assay: nucleus roundness z-score vs screen plate; higher = rounder nuclei (more mature)
# [4] = tested on: hPSC-derived cortical neurons (WA09); assay: KCl-induced FOS+/EGR-1+ double-positive nuclei fraction z-score (KCl minus unstimulated); higher = stronger activity-induced IEG response
Structure (SMILES),nucleus area z-score [1],total neurite length per nucleus (z-score) [2],nucleus roundness z-score [3],KCl-induced FOS+/EGR-1+ double-positive nuclei fraction z-score [4]
CC(CN(C)C)CN1c2ccccc2CCc2ccccc21 (stereo not given) [Trimipramine Maleate],-0.863,-1.56,-0.547,-0.356
Cc1noc(NS(=O)(=O)c2ccc(N)cc2)c1C [Sulfisoxazole],-0.179,0.718,-0.412,0.131
O=[N+]([O-])c1ccc2c(c1)S(=O)(=O)C=C2 [Stattic],-0.318,-0.916,-0.288,0.369
Oc1ccc(O)cc1 [Hydroquinone],-0.0842,0.0264,0.239,0.409
CC(C)c1nc(CN(C)C(=O)N[C@@H](CCN2CCOCC2)C(=O)N[C@H](CC[C@H](Cc2ccccc2)NC(=O)OCc2cncs2)Cc2ccccc2)cs1 [Cobicistat (GS-9350)],-1.7,-1.35,-0.0687,-0.258
C=CCNc1ncnc2ccc(Br)cc12,0.728,-0.914,-1.2,-0.777
CCCCOc1cc(C(=O)NCCN(CC)CC)c2ccccc2n1 [Dibucaine HCl],-0.385,-0.0878,0.201,0.804
C[C@H](CCC(=O)O)[C@H]1CC[C@H]2[C@@H]3C[C@H](O)[C@@H]4C[C@H](O)CC[C@]4(C)[C@H]3CC[C@]12C [Hyodeoxycholic acid (HDCA)],0.48,-0.702,-0.035,0.0716
COc1ccc(COc2cc3oc(=O)c4cc(C(C)O)ccc4c3cc2OC)cc1 (stereo not given) [Palomid 529 (P529)],1.13,-0.83,-0.249,0.0311
CN(C(=O)CN(CCO)CC(=O)N(C)C(C)(C)Cc1ccccc1)C(C)(C)Cc1ccccc1 [Oxethazaine],-2.56,-1.86,-1.91,-0.697
CCCCC(=O)N(Cc1ccc(-c2ccccc2-c2nnn[nH]2)cc1)[C@H](C(=O)O)C(C)C [Valsartan],0.0831,0.349,0.629,1.55
O=C(O)C(=O)O.[NH-][C@@H]1CCCC[C@H]1[NH-].[Pt+2] [Oxaliplatin],-0.339,1.07,1.12,1.66
Cc1cc(C)c(CNC(=O)c2cc(-c3ccc(N4CCN(C)CC4)nc3)cc3c2c(C)cn3C(C)C)c(=O)[nH]1,8.42e-05,0.367,0.595,1.99
CC(C[N+](C)(C)C)OC(N)=O (stereo not given) [Bethanechol chloride],1.9,1.06,1.2,1.31
"O=c1cc(-c2ccccc2)oc2c(O)c(O)ccc12 [7,8-Dihydroxyflavone]",0.539,0.646,1.19,-0.371
CCN(CC)CC#CCOC(=O)C(O)(c1ccccc1)C1CCCCC1 (stereo not given) [Oxybutynin],-0.618,-1.32,-1.07,0.0624
NC(=O)CC[C@H](N)C(=O)O [L-Glutamine],0.174,0.341,1.48,3.15
O=C(OCC(O)CO)c1ccccc1Nc1ccnc2cc(Cl)ccc12 (stereo not given) [Glafenine HCl],-0.0224,0.434,1.97,-0.5
CCOC(=O)[C@H](CCc1ccccc1)N[C@@H](C)C(=O)N1CCC[C@H]1C(=O)O [Enalapril Maleate],-0.81,1.34,0.807,0.401
COc1cc(CCc2cc(NC(=O)c3ccc(N4CC(C)NC(C)C4)cc3)n[nH]2)cc(OC)c1 (stereo not given),-2.38,0.0659,-0.132,-1.35

# As entered above:
# In nucleus area z-score [1], CCN(CC)CC#CCOC(=O)C(O)(c1ccccc1)C1CCCCC1 (stereo not given) [Oxybutynin] has the entry -0.618
# In KCl-induced FOS+/EGR-1+ double-positive nuclei fraction z-score [4], O=c1cc(-c2ccccc2)oc2c(O)c(O)ccc12 [7,8-Dihydroxyflavone] has the entry -0.371

# Following part.

Structure (SMILES),nucleus area z-score [1],total neurite length per nucleus (z-score) [2],nucleus roundness z-score [3],KCl-induced FOS+/EGR-1+ double-positive nuclei fraction z-score [4]
CCCS(=O)(=O)Nc1ccc(F)c(C(=O)c2c[nH]c3ncc(Cl)cc23)c1F,1.04,1.49,0.978,1.89
CNC(=O)c1ccccc1Nc1nc(Nc2ccc(N3CCOCC3)cc2OC)ncc1Cl,-4.77,-0.206,-2.81,0.0627
CC(C)CCCCC(=O)N[C@@H](CCN)C(=O)N[C@H](C(=O)N[C@@H](CCN)C(=O)N[C@H]1CCNC(=O)[C@H]([C@@H](C)O)NC(=O)[C@H](CCN)NC(=O)[C@H](CCN)NC(=O)[C@H](CC(C)C)NC(=O)[C@@H](Cc2ccccc2)NC(=O)[C@H](CCN)NC1=O)[C@@H](C)O [Polymyxin B sulphate] ({Heptanoyl(6-Me)}-[Dab]T[Dab][Dab][Dab][dF]L[Dab][Dab]T; lactam 4-C),0.626,-0.133,0.0573,1.8
CC1(C)CC(=O)c2c(C(F)(F)F)nn(-c3ccc(C(N)=O)c(N[C@H]4CC[C@H](OC(=O)CN)CC4)c3)c2C1,-9.75,-4.84,-3.3,-1.66
NC(=O)N1c2ccccc2C=Cc2ccccc21 [Carbamazepine],0.122,0.0584,0.275,0.432
CC(=O)NO [Acetohydroxamic acid],0.0697,0.367,0.866,0.25
Cc1ncc([N+](=O)[O-])n1CC(C)O (stereo not given) [Secnidazole],1.19,-0.0605,0.0463,-0.0768
CCOC(=O)n1ccn(C)c1=S [Carbimazole],-0.488,0.185,0.531,-0.0584
O=C1CCc2c(ccc3ccccc23)O1 [Splitomicin],0.152,0.548,1.26,0.832
CCS(=O)(=O)N1CCC([C@@H](C)n2c(C)c(C(=O)NCc3c(OC)cc(C)[nH]c3=O)c3ccccc32)CC1,0.162,0.592,1.39,1.59
CC(C(=O)O)c1ccc(CC2CCCC2=O)cc1 (stereo not given) [Loxoprofen],-0.489,0.863,0.134,1.93
CCC[C@H](N[C@@H](C)C(=O)N1[C@H](C(=O)O)C[C@@H]2CCCC[C@@H]21)C(=O)OCC [Perindopril Erbumine],1.04,-0.026,0.726,0.0342
O=C1NC(=O)/C(=C/c2ccc3c(c2)OC(F)(F)O3)S1,0.0688,1.27,0.523,0.207
CC(C)(C)NCC(O)c1ccc(O)c(CO)c1 (stereo not given) [Salbutamol Sulfate],-0.199,0.6,0.327,0.731
CC(=O)Nc1nnc(S(N)(=O)=O)s1 [Acetazolamide],0.771,3.63,-0.035,0.28
CC(C)c1nc(CN(C)C(=O)N[C@H](C(=O)N[C@@H](Cc2ccccc2)C[C@H](O)[C@H](Cc2ccccc2)NC(=O)OCc2cncs2)C(C)C)cs1 [Ritonavir],-0.0402,-0.0907,0.198,0.106
NCCc1c[nH]cn1 [Histamine Phosphate],-1.64,1.47,-0.968,1.6
O=C(O)C(Cc1ccccc1[N+](=O)[O-])=NNc1nc(-c2ccc(Cl)c(Cl)c2)cs1 (mixture of isomers),-0.0577,0.622,0.226,-0.3
Nc1ccc(C(=O)O)c(O)c1 [Sodium 4-Aminosalicylate],0.0331,-0.0372,-0.316,-0.76
O=c1c(-c2ccc(O)cc2)coc2cc(O)cc(O)c12 [Genistein],0.934,0.587,0.225,0.015

# Random excerpt: 2 entries already listed
Structure (SMILES),nucleus area z-score [1],total neurite length per nucleus (z-score) [2],nucleus roundness z-score [3],KCl-induced FOS+/EGR-1+ double-positive nuclei fraction z-score [4]
O=C(OCC(O)CO)c1ccccc1Nc1ccnc2cc(Cl)ccc12 (stereo not given) [Glafenine HCl],-0.0224,0.434,1.97,-0.5
CCCS(=O)(=O)Nc1ccc(F)c(C(=O)c2c[nH]c3ncc(Cl)cc23)c1F,1.04,1.49,0.978,1.89

# Next results follow.

Structure (SMILES),nucleus area z-score [1],total neurite length per nucleus (z-score) [2],nucleus roundness z-score [3],KCl-induced FOS+/EGR-1+ double-positive nuclei fraction z-score [4]
CC(=O)O/N=C1/C(c2c(O)[nH]c3cc(Br)ccc23)=Nc2ccccc21 [BIO-acetoxime],-0.783,-1.44,-1.3,-0.41
NCCc1c[nH]cn1 [Histamine 2HCl],-0.532,0.239,0.375,-1.96
COc1ccc(Cl)cc1NC(=O)Nc1cc(C)nc2ccccc12,-0.436,0.681,-0.0493,-0.152
Nc1nc(O)c2ncn(CCC(CO)CO)c2n1 [Penciclovir],-0.569,0.39,0.842,0.807
CCCCc1ncc(/C=C(\Cc2cccs2)C(=O)O)n1Cc1ccc(C(=O)O)cc1 [Eprosartan Mesylate],-2.4,-0.411,-0.358,-1.02
Cc1nc(-c2cn3c(n2)-c2ccc(-c4cnn(C(C)(C)C(N)=O)c4)cc2OCC3)n(C(C)C)n1,-4.25,-0.636,-0.302,0.629
CCOC(=O)c1ccc(NC2CCCCC2)c(N)c1 [Ferrostatin-1 (Fer-1)],0.529,0.162,0.705,0.587
COc1cccc(NC(=O)/C=C/c2ccc(Cl)cc2)c1,0.232,0.00157,0.347,1.88
Oc1ccc(/C=C/c2cc(O)cc(O)c2)cc1 [Resveratrol],0.435,0.376,-0.0392,1.26
Cn1cnc2c(F)c(Nc3ccc(Br)cc3F)c(C(=O)NOCCO)cc21,0.506,-0.0393,0.298,0.0105
Nc1nc2c(ncn2COC(CO)CO)c(=O)[nH]1 [Ganciclovir],0.286,-0.651,-1.12,-1.12
CCn1cc(NC(=S)Nc2cc(Cl)ccc2OC)c(C(N)=O)n1,-0.325,0.307,0.427,0.208
C[C@H]1[C@H](OC(=O)CCC(=O)O)O[C@@H]2O[C@@]3(C)CC[C@H]4[C@H](C)CC[C@@H]1[C@@]24OO3 [Artesunate],-0.523,-0.533,-1.74,-0.947
CN(C)CCC(c1ccccc1)c1ccccn1 (stereo not given) [Pheniramine Maleate],-0.06,0.198,0.338,-0.254
COc1c(N2C[C@@H]3CCCN[C@@H]3C2)c(F)cc2c(=O)c(C(=O)O)cn(C3CC3)c12 [Moxifloxacin HCl],-0.156,-0.0834,0.518,1.19
COC(=O)C1=C(C)NC(C)=C(C(=O)OCCN2CCN(C(c3ccccc3)c3ccccc3)CC2)C1c1cccc([N+](=O)[O-])c1 (stereo not given) [Manidipine 2HCl],-7.95,-4.14,-5.79,-0.579
C[N+](C)(C)CCO.[Cl-] [Choline Chloride],0.683,0.21,0.426,1.12
O=C(O)C(O)Cc1ccc(O)c(O)c1 (stereo not given) [Sodium Danshensu],0.856,-0.143,0.756,0.611
O=C(Nc1ccccc1)c1cc([N+](=O)[O-])ccc1Cl,0.59,-1.02,-1.68,-0.767
CN1CCC(CNc2ccc3ncc(-c4cccc(OC(F)(F)F)c4)n3n2)CC1 [SGI-1776 free base],-7.25,-3.87,-3.31,-0.956
